Experimental data as given in PubChem BioAssay (EPA / NIEHS).
Inconclusive results, whose numbers are uncertain, are shown with a selection of clear calls. For some assays here: Where the call is inconclusive, the potency comes from a doubtful curve fit. Activity calls are given as the source filed them. How the source made its calls: active means hit-call score of the fitted dose curve at least 0.9, where 1 is the maximum; inconclusive means response in the unintended direction; inactive means score below 0.9.

Sequences of proteins named here, by UniProt entry; tags and fusion partners are left off. A change or cut given only in a name is not applied to a line headed by its entry.
UniProt P20813: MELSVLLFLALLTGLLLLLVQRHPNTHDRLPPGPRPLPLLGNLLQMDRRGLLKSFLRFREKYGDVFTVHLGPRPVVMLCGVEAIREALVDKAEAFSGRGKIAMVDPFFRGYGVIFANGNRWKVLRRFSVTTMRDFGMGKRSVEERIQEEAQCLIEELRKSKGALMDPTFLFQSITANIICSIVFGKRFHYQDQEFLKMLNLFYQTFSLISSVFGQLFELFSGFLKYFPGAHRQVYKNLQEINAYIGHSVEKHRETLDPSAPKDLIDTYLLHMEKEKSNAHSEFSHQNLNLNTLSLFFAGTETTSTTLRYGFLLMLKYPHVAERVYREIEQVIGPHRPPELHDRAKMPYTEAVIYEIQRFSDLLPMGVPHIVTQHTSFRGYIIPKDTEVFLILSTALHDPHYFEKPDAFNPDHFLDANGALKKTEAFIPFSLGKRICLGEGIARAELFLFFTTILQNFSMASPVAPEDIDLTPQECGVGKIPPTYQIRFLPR
UniProt P08684, whole entry, looked up: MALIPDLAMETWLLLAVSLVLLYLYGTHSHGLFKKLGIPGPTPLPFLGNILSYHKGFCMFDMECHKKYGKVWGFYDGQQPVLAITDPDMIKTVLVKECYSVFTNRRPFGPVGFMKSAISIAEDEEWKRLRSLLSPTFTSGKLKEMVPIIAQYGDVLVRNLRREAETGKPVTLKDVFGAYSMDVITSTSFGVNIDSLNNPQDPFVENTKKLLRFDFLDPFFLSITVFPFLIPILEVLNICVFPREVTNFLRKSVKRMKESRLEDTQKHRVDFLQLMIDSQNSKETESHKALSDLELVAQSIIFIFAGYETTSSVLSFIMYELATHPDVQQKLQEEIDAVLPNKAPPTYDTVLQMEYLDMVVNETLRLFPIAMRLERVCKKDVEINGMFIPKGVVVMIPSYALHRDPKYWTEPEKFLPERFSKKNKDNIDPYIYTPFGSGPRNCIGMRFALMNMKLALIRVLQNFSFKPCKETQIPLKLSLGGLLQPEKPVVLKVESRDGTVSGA
UniProt P04406: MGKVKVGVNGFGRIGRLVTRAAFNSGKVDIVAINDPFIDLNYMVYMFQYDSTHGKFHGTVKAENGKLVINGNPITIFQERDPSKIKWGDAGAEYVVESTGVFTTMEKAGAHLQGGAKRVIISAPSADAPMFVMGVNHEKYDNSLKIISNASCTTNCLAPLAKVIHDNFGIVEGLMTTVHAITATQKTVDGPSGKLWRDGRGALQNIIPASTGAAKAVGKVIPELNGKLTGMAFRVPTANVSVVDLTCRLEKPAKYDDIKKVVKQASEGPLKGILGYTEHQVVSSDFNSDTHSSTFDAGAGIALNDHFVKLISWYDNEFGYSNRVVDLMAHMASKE
UniProt P33261, whole entry, looked up: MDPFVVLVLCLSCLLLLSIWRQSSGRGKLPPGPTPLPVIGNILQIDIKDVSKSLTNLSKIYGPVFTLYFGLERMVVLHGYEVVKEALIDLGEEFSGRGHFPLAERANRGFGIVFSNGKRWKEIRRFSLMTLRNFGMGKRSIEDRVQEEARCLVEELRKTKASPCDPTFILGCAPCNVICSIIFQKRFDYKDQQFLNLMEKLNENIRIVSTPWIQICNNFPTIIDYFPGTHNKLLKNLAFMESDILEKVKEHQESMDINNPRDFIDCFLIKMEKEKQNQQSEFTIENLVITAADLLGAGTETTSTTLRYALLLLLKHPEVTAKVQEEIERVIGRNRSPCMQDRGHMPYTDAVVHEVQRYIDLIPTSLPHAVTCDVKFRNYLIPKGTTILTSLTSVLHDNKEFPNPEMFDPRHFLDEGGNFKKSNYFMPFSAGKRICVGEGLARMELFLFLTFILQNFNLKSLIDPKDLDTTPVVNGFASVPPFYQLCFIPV

Legend:
[1] = read-out: xenobiotic metabolism (CYP1A2), CYP1A2 (gene 1544); test: CLD_CYP1A2_6hr: CellzDirect (CLD) Gene Expression Assay for xenobiotic metabolism (CYP1A2) at 6 hours (AID 2283663);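 on AC50: potency is for induction meaning a rise in mRNA above DMSO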
Procedure, shortened: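 Primary human hepatocytes from two donor preparations, dosed daily with multiple concentrations in 0.2% DMSO and harvested at 6 h. CYP1A2 mRNA induction measured by chemiluminescent qNPA, gain of signal fitted against DMSO; cytotoxicity flagged morphologically.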

[2] = read-out: xenobiotic metabolism (CYP2C9), CYP2C9 (gene 1559); test: CLD_CYP2C9_6hr: CellzDirect (CLD) Gene Expression Assay for xenobiotic metabolism (CYP2C9) at 6 hours (AID 2283664)
Procedure, shortened: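 Primary human hepatocytes dosed daily with test chemicals at multiple concentrations; harvested at 6 h. CYP2C9 mRNA induction measured by qNPA chemiluminescence. Gain of signal fitted against 0.2% DMSO vehicle; cytotoxicity annotated from phase-contrast morphology.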

[3] = read-out: alkyl and aryl transferase (GSTA2), GSTA2 (gene 2939); test: CLD_GSTA2_6hr: CellzDirect (CLD) Gene Expression Assay for alkyl and aryl transferase (GSTA2) at 6 hours (AID 2283666)
Procedure, shortened: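 Primary human hepatocytes from two donor preparations were dosed daily with fresh compound at multiple concentrations, 0.2% DMSO vehicle. GSTA2 mRNA was measured at 6 hours by qNPA chemiluminescence; induction fitted relative to DMSO, with cytotoxicity flagged morphologically.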

[4] = CLD_ACTIN_24hr: CellzDirect (CLD) Gene Expression Assay for Baseline Control (Actin) at 24 hours (AID 2283670)
Procedure, shortened: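 Primary human hepatocytes dosed over multiple concentrations with 0.2% DMSO vehicle; actin mRNA measured at 24 h by qNPA chemiluminescence. Background control endpoint, fitted as gain of signal versus DMSO.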

[5] = read-out: ABC Transporter (ABCB11), ABCB11 (gene 8647); test: CLD_ABCB11_6hr: CellzDirect (CLD) Gene Expression Assay for ABC Transporter (ABCB11) at 6 hours (AID 2283675);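 further: hits raise ABCB11 mRNA level so AC50 marks induction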
Procedure, shortened: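 Human primary hepatocytes (two donor preparations) given fresh chemical daily at multiple concentrations, vehicle 0.2% DMSO. ABCB11 mRNA induction measured 6 h after dosing by qNPA chemiluminescence versus DMSO; cytotoxicity annotated from morphology.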

[6] = read-out: HMG-CoA synthase (HMGCS2), HMGCS2 (gene 3158); test: CLD_HMGCS2_6hr: CellzDirect (CLD) Gene Expression Assay for HMG-CoA synthase (HMGCS2) at 6 hours (AID 2283682);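 further: actives raise HMGCS2 transcript above the 0.2% DMSO vehicle baseline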
Procedure, shortened: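 Primary human hepatocytes dosed daily with fresh chemical, 0.2% DMSO vehicle; HMGCS2 mRNA measured at 6 h by qNPA chemiluminescence. Gain of signal fitted against DMSO; cytotoxicity flagged from phase-contrast morphology.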

[7] = CCTE_Simmons_CellTiterGLO_HEK293T: Viability Assessment in CCTE's Assays for Thyroperoxidase (TPO) Inhibition, Simmons Lab (AID 2283665);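 further: cells exposed to compound for 24 h before readout; actives reduce ATP signal below DMSO vehicle meaning cytotoxicity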
Procedure, shortened: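 HEK293T cells in DMEM with 1% FBS were dosed with 8 concentrations (5 nM–87.5 uM final, 0.5% DMSO) for 24 hr at 37C; ATP content was read by CellTiter-Glo luminescence, loss-of-signal versus DMSO, three biological replicates.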

[8] = read-out: glucuronosyltransferase (UGT1A1), UGT1A1 (gene 54658); test: CLD_UGT1A1_6hr: CellzDirect (CLD) Gene Expression Assay for glucuronosyltransferase (UGT1A1) at 6 hours (AID 2283672)
Procedure, shortened: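 Primary human hepatocytes from two donor preparations, dosed with fresh solutions in 0.2% DMSO, harvested at 6 h. UGT1A1 mRNA measured by qNPA chemiluminescence; induction fitted upward versus DMSO.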

[9] = read-out: xenobiotic metabolism (CYP1A1), CYP1A1 (gene 1543); test: CLD_CYP1A1_24hr: CellzDirect (CLD) Gene Expression Assay for xenobiotic metabolism (CYP1A1) at 24 hours (AID 2283673);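 further: CYP1A1 mRNA level by quantitative nuclease protection with chemiluminescence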
Procedure, shortened: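 Primary human hepatocytes dosed daily with fresh solutions in 0.2% DMSO vehicle. mRNA measured at 24 h by quantitative nuclease protection assay with chemiluminescence; gain-of-signal fit versus DMSO, with morphology-based cytotoxicity flags.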

[10] = read-out: Cytochrome P450 2B6 (Homo sapiens) (UniProt P20813); test: CLD_CYP2B6_6hr: CellzDirect (CLD) Gene Expression Assay for xenobiotic metabolism (CYP2B6) at 6 hours (AID 2283677);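 further: actives raise CYP2B6 transcript above DMSO baseline so AC50 marks an inducer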
Procedure, shortened: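 Primary human hepatocytes dosed with chemicals at multiple concentrations, vehicle 0.2% DMSO; CYP2B6 mRNA induction measured 6 h after dosing by quantitative nuclease protection assay with chemiluminescence, gain of signal fitted relative to DMSO.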

[11] = read-out: Cytochrome P450 3A4 (Homo sapiens) (UniProt P08684); test: CLD_CYP3A4_6hr: CellzDirect (CLD) Gene Expression Assay for xenobiotic metabolism (CYP3A4) at 6 hours (AID 2283680)
Procedure, shortened: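 Primary human hepatocytes (two donor preparations) dosed; CYP3A4 mRNA harvested at 6 h and quantified by qNPA chemiluminescence. Gain of signal fitted against 0.2% DMSO vehicle; cytotoxicity flagged by phase-contrast morphology.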

[12] = read-out: Glyceraldehyde-3-phosphate dehydrogenase (Homo sapiens) (UniProt P04406); test: CLD_GAPDH_6hr: CellzDirect (CLD) Gene Expression Assay for Baseline Control (Glyceraldehyde 3-phosphate dehydrogenase) at 6 hours (AID 2283681)
Procedure, shortened: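 Primary human hepatocytes from two donor preparations, dosed at multiple concentrations with 0.2% DMSO vehicle; GAPDH mRNA measured 6 h after dosing by chemiluminescent quantitative nuclease protection assay (qNPA) on denatured lysates. Serves as background control; cytotoxicity annotated by morphology.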

[13] = read-out: ABC Transporter (ABCB1), ABCB1 (gene 5243); test: CLD_ABCB1_24hr: CellzDirect (CLD) Gene Expression Assay for ABC Transporter (ABCB1) at 24 hours (AID 2283684);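 further: potency for increase in ABCB1 mRNA relative to DMSO vehicle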
Procedure, shortened: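 Primary human hepatocytes, two donor preparations, dosed daily with fresh solutions; vehicle 0.2% DMSO; harvested at 24 h. ABCB1 mRNA measured by quantitative nuclease protection assay (chemiluminescence); morphology-based cytotoxicity annotated.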

[14] = read-out: organic anion transporter (SLCO1B1), SLCO1B1 (gene 10599); test: CLD_SLCO1B1_6hr: CellzDirect (CLD) Gene Expression Assay for organic anion transporter (SLCO1B1) at 6 hours (AID 2283668);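 further: active means mRNA induction above DMSO baseline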
Procedure, shortened: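 Primary human hepatocytes dosed daily with test chemicals (multiple concentrations) in 0.2% DMSO vehicle; harvested at 6 h. SLCO1B1 mRNA quantified by qNPA chemiluminescence, fitted as gain-of-signal versus DMSO; cytotoxicity from phase-contrast morphology flagged alongside.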

[15] = read-out: sulfotransferase (SULT2A), SULT2A1 (gene 6822); test: CLD_SULT2A_6hr: CellzDirect (CLD) Gene Expression Assay for sulfotransferase (SULT2A) at 6 hours (AID 2283669);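 further: hits raise transcript level above the DMSO vehicle baseline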
Procedure, shortened: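 Primary human hepatocytes from two donor preparations were dosed daily with chemicals or 0.2% DMSO and harvested at 6 h. Transcript induction read by qNPA chemiluminescence, fitted for gain of signal relative to DMSO; morphology-based cytotoxicity annotated.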

[16] = read-out: Cytochrome P450 2C19 (Homo sapiens) (UniProt P33261); test: CLD_CYP2C19_6hr: CellzDirect (CLD) Gene Expression Assay for xenobiotic metabolism (CYP2C19) at 6 hours (AID 2283678)
Procedure, shortened: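 Primary human hepatocytes from two donor preparations were dosed daily, with 0.2% DMSO as vehicle, and harvested 6 h after dosing. CYP2C19 mRNA induction was measured by qNPA chemiluminescence and fitted as gain of signal against DMSO.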

[17] = Tanguay_ZF_120hpf_TR_legacy: (Legacy) Oregon State University Tanguay Lab 120 Hour Post-fertilization zebrafish Assay for Touch Response (AID 2283667)
Procedure, shortened: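 Tropical 5D wild-type zebrafish embryos statically exposed to 120 hpf at 28°C, sealed and dark-covered, 0.64% DMSO final; touch response scored as present/absent by brightfield microscopy at 120 hpf. Trimethyltin chloride 5 uM positive control; dead embryos not scored.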

Measured: AC50

CSc1nc(NC(C)C)nc(NC(C)C)n1
inconclusive: [4] 5.76 µM | [5] 20 µM | [6] 0.0881 µM
inactive: [1] | [2] | [3]

CC1(c2ccc(Oc3ccccc3)cc2)OC(=O)N(Nc2ccccc2)C1=O (centres undefined)
active: [7] 20.2 µM | [9] 3.89 µM | [10] 1.88 µM
inconclusive: [1] 38.3 µM | [8] 0.00115 µM | [11] 20 µM | [12] 20 µM | [13] 0.0519 µM
inactive: [2]

CNC(=S)S
inconclusive: [1] 0.000557 µM | [3] 36.3 µM | [14] 0.00274 µM
inactive: [2] | [4] | [9] | [16] | [11]
active: [15] 7.49 µM

COC(=O)c1c(C(F)F)nc(C(F)(F)F)c(C2=NCCS2)c1CC(C)C
inactive: [14] | [16]
inconclusive: [2] 20 µM | [17] 202 µM | [4] 20 µM | [5] 0.0004 µM | [12] 20 µM | [6] 0.0125 µM
active: [1] 0.665 µM | [9] 36.1 µM

CCN(CC)C(=O)C(C)Oc1cccc2ccccc12 (centres undefined)
inactive: [15]
active: [1] 4.15 µM | [10] 0.317 µM
inconclusive: [2] 20 µM | [3] 20 µM | [14] 20 µM | [4] 3.97 µM | [12] 20 µM | [6] 0.000422 µM | [13] 20 µM

CN(C)NC(=O)CCC(=O)O
inactive: [1] | [10]
inconclusive: [2] 20 µM | [14] 20 µM | [9] 0.000387 µM | [16] 20 µM

Cc1c(COC(=O)[C@@H]2[C@H](/C=C(\Cl)C(F)(F)F)C2(C)C)cccc1-c1ccccc1
inconclusive: [1] 0.000395 µM | [2] 0.342 µM | [14] 20 µM | [15] 20 µM | [16] 20 µM | [12] 20 µM | [6] 0.00131 µM
active: [11] 3.44 µM | [13] 29.9 µM
